Data on 4 molecules can be found in article PMC8395203.

Protein sequences, listed by entry. Tags and fused reporters are not part of them.
UniProt Q96GD4: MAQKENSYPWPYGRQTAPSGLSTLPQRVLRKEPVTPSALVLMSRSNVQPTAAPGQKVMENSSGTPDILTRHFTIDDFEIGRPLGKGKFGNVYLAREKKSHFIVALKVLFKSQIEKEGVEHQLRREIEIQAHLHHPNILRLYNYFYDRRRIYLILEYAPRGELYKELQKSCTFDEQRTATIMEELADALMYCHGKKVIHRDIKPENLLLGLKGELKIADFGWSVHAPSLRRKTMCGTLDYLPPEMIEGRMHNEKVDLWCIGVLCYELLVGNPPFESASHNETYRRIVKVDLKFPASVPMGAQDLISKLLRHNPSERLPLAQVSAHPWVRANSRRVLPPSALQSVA

Assay [1] addresses T1, USP48 (endogenous) (human (endogenous in HeLa)) (UniProt Q86UV5).
T1 sequence: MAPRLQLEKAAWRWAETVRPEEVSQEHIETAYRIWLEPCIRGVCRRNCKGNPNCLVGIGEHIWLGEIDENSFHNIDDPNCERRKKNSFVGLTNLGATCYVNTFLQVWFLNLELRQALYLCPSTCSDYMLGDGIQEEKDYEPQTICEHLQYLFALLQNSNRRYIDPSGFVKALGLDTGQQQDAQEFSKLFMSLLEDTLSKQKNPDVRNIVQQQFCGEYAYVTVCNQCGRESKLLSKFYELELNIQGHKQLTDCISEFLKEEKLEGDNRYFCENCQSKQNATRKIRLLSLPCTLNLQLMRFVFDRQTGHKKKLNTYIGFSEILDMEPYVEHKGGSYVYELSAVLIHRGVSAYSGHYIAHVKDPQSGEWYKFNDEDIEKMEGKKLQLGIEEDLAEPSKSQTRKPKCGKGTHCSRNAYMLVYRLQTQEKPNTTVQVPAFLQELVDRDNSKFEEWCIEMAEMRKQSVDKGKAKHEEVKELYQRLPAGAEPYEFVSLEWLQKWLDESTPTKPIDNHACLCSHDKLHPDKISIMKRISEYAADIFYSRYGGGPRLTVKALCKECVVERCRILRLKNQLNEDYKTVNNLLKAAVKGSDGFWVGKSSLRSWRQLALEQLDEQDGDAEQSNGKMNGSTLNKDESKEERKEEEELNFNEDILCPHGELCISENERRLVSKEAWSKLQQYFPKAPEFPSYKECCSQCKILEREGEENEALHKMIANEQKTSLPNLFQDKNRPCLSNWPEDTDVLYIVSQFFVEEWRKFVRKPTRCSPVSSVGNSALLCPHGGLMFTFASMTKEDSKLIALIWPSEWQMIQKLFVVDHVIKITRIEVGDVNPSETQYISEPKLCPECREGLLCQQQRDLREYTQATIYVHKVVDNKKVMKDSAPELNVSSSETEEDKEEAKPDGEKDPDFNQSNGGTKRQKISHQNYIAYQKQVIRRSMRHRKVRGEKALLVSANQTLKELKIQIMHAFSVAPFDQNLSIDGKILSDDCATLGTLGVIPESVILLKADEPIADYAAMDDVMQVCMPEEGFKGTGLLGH
The experiment in a line: co-IP; endogenous IP from HeLa lysates (about 5 mg) with USP48 or Aurora B antibodies, protein A/G agarose beads, immunoblot; cells treated with MG132 for 8 h before harvesting. On the technique in general: A western blot detects proteins with antibodies after separation by electrophoresis.

In assay [2] the target is T2, Flag-USP48 (human) (UniProt Q86UV5).
T2 sequence: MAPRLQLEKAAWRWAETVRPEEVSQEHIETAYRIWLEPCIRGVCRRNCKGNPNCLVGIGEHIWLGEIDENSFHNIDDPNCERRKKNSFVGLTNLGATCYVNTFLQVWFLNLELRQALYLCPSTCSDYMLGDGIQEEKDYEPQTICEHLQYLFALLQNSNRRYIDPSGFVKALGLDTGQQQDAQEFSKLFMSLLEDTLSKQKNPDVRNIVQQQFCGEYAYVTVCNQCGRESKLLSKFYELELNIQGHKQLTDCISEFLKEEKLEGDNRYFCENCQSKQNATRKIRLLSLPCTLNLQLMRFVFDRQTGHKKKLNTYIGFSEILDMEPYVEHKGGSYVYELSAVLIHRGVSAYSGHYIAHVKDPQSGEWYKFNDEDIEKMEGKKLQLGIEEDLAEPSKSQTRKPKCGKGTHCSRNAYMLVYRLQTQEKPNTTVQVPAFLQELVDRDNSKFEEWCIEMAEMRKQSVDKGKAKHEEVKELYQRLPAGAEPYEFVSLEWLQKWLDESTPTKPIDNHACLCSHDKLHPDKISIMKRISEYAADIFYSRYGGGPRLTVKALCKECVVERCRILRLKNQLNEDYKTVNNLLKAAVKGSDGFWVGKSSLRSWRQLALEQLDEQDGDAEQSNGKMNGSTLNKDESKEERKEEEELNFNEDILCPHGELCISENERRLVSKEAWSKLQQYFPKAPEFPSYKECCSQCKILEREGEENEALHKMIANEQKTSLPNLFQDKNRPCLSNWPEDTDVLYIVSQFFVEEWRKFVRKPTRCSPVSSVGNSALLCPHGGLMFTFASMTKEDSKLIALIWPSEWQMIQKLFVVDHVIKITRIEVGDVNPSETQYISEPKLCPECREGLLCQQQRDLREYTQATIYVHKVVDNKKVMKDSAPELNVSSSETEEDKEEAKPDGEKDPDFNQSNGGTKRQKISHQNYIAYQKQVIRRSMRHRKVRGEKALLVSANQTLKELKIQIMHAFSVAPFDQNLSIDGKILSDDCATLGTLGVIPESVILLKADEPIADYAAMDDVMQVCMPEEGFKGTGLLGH
The assay is described as follows: co-IP; HEK293 cells co-transfected with Flag-USP48 and Myc-Aurora B, lysed in RIPA buffer (50 mM Tris-HCl pH 7.6, 1% Triton X-100, 150 mM NaCl, 0.1% SDS, 1% sodium deoxycholate, 2 mM EDTA); IP with anti-Flag or anti-Myc at 4 °C overnight, immunoblot.

In assay [3] the target is Aurora B (endogenous) (human (endogenous in HeLa)) (UniProt Q96GD4). The experiment in a line: co-IP; endogenous IP from HeLa lysates (about 5 mg) with USP48 or Aurora B antibodies, protein A/G agarose beads, immunoblot; cells treated with MG132 for 8 h before harvesting.
The target of assay [4] is Myc-Aurora B (human) (UniProt Q96GD4). The experiment in a line: co-IP; HEK293 cells co-transfected with Flag-USP48 and Myc-Aurora B, lysed in RIPA buffer (50 mM Tris-HCl pH 7.6, 1% Triton X-100, 150 mM NaCl, 0.1% SDS, 1% sodium deoxycholate, 2 mM EDTA); IP with anti-Flag or anti-Myc at 4 °C overnight, immunoblot.

These are yes or no findings as the source states them, for the method shown. In cells and extracts the contact can be indirect. Some binding calls cover weakened binding; strength is not graded here. For some of these results: Sequences can lack the tags named with a protein.

“Aurora B (endogenous) (from UniProt Q96GD4 1-344) (enzyme)”: in assay [1], the binding result is “binds”.
In the case of “Myc-Aurora B (from UniProt Q96GD4 1-344) (enzyme)”, the binding result in assay [2] is on record as “binds”.

B1: USP48 (endogenous) (enzyme, UniProt Q86UV5 1-1035)
chain: MAPRLQLEKAAWRWAETVRPEEVSQEHIETAYRIWLEPCIRGVCRRNCKGNPNCLVGIGEHIWLGEIDENSFHNIDDPNCERRKKNSFVGLTNLGATCYVNTFLQVWFLNLELRQALYLCPSTCSDYMLGDGIQEEKDYEPQTICEHLQYLFALLQNSNRRYIDPSGFVKALGLDTGQQQDAQEFSKLFMSLLEDTLSKQKNPDVRNIVQQQFCGEYAYVTVCNQCGRESKLLSKFYELELNIQGHKQLTDCISEFLKEEKLEGDNRYFCENCQSKQNATRKIRLLSLPCTLNLQLMRFVFDRQTGHKKKLNTYIGFSEILDMEPYVEHKGGSYVYELSAVLIHRGVSAYSGHYIAHVKDPQSGEWYKFNDEDIEKMEGKKLQLGIEEDLAEPSKSQTRKPKCGKGTHCSRNAYMLVYRLQTQEKPNTTVQVPAFLQELVDRDNSKFEEWCIEMAEMRKQSVDKGKAKHEEVKELYQRLPAGAEPYEFVSLEWLQKWLDESTPTKPIDNHACLCSHDKLHPDKISIMKRISEYAADIFYSRYGGGPRLTVKALCKECVVERCRILRLKNQLNEDYKTVNNLLKAAVKGSDGFWVGKSSLRSWRQLALEQLDEQDGDAEQSNGKMNGSTLNKDESKEERKEEEELNFNEDILCPHGELCISENERRLVSKEAWSKLQQYFPKAPEFPSYKECCSQCKILEREGEENEALHKMIANEQKTSLPNLFQDKNRPCLSNWPEDTDVLYIVSQFFVEEWRKFVRKPTRCSPVSSVGNSALLCPHGGLMFTFASMTKEDSKLIALIWPSEWQMIQKLFVVDHVIKITRIEVGDVNPSETQYISEPKLCPECREGLLCQQQRDLREYTQATIYVHKVVDNKKVMKDSAPELNVSSSETEEDKEEAKPDGEKDPDFNQSNGGTKRQKISHQNYIAYQKQVIRRSMRHRKVRGEKALLVSANQTLKELKIQIMHAFSVAPFDQNLSIDGKILSDDCATLGTLGVIPESVILLKADEPIADYAAMDDVMQVCMPEEGFKGTGLLGH
Regarding B1, in assay [3], the binding result was “binds”.

B2: Flag-USP48 (enzyme, UniProt Q86UV5 1-1035)
chain: MAPRLQLEKAAWRWAETVRPEEVSQEHIETAYRIWLEPCIRGVCRRNCKGNPNCLVGIGEHIWLGEIDENSFHNIDDPNCERRKKNSFVGLTNLGATCYVNTFLQVWFLNLELRQALYLCPSTCSDYMLGDGIQEEKDYEPQTICEHLQYLFALLQNSNRRYIDPSGFVKALGLDTGQQQDAQEFSKLFMSLLEDTLSKQKNPDVRNIVQQQFCGEYAYVTVCNQCGRESKLLSKFYELELNIQGHKQLTDCISEFLKEEKLEGDNRYFCENCQSKQNATRKIRLLSLPCTLNLQLMRFVFDRQTGHKKKLNTYIGFSEILDMEPYVEHKGGSYVYELSAVLIHRGVSAYSGHYIAHVKDPQSGEWYKFNDEDIEKMEGKKLQLGIEEDLAEPSKSQTRKPKCGKGTHCSRNAYMLVYRLQTQEKPNTTVQVPAFLQELVDRDNSKFEEWCIEMAEMRKQSVDKGKAKHEEVKELYQRLPAGAEPYEFVSLEWLQKWLDESTPTKPIDNHACLCSHDKLHPDKISIMKRISEYAADIFYSRYGGGPRLTVKALCKECVVERCRILRLKNQLNEDYKTVNNLLKAAVKGSDGFWVGKSSLRSWRQLALEQLDEQDGDAEQSNGKMNGSTLNKDESKEERKEEEELNFNEDILCPHGELCISENERRLVSKEAWSKLQQYFPKAPEFPSYKECCSQCKILEREGEENEALHKMIANEQKTSLPNLFQDKNRPCLSNWPEDTDVLYIVSQFFVEEWRKFVRKPTRCSPVSSVGNSALLCPHGGLMFTFASMTKEDSKLIALIWPSEWQMIQKLFVVDHVIKITRIEVGDVNPSETQYISEPKLCPECREGLLCQQQRDLREYTQATIYVHKVVDNKKVMKDSAPELNVSSSETEEDKEEAKPDGEKDPDFNQSNGGTKRQKISHQNYIAYQKQVIRRSMRHRKVRGEKALLVSANQTLKELKIQIMHAFSVAPFDQNLSIDGKILSDDCATLGTLGVIPESVILLKADEPIADYAAMDDVMQVCMPEEGFKGTGLLGH
As for B2, the binding entry in assay [4] is “binds”.
